Assay results published in PMC11957191.
Results are given in words; binding and its absence hold for the method and conditions named. Some results given as binding are weak or reduced against the parent protein; the word gives no strength.

Protein sequences, listed by entry. Tags and fused reporters are not part of them. Lines headed by an entry give the natural chain unless they say otherwise; changes in a name come on top. Chains listed by the source or under a name are the forms on record and can include a tag or linker. Residues count along the entry.
UniProt P84077: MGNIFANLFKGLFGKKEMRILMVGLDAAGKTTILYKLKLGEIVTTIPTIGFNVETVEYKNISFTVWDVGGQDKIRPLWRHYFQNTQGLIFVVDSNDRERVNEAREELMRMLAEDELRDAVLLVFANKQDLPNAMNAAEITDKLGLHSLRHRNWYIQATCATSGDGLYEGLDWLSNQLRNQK
MTSL-tagged myrArf1 K73C (Cys159 mutated to Ala) (P84077, form named): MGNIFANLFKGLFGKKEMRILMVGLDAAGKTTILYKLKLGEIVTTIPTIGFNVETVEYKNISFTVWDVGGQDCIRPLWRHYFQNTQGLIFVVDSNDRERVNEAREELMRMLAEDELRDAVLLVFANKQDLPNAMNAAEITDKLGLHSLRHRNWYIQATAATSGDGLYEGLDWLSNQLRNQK
MTSL-tagged myrArf1 K38C (Cys159 mutated to Ala) (P84077, form named): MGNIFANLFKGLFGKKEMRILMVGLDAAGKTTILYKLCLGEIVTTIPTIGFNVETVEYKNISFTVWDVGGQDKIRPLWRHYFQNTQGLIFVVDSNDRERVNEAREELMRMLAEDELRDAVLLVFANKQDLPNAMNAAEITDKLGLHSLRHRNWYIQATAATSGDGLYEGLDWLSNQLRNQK
wt ASAP1 PH domain, [325–451]ASAP1 (Q9QWY8, residues 325-451): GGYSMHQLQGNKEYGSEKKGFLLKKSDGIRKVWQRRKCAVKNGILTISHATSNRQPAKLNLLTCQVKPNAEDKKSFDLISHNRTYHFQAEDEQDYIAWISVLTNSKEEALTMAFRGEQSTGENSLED
ΔN9 ASAP1 PH domain, [334–451]ASAP1 (Q9QWY8, residues 334-451): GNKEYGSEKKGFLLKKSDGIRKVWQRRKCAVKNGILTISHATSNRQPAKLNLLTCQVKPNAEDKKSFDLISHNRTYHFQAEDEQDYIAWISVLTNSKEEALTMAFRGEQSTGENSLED
ΔN14 ASAP1 PH domain, [339–451]ASAP1 (Q9QWY8, residues 339-451): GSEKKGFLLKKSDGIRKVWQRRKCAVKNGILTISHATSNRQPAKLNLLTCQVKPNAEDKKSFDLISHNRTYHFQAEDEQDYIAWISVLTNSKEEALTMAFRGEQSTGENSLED

Tests used:
[1] = target: myristoylated human Arf1 (myrArf1), GTP-bound form at a membrane surface (human) (UniProt P84077); experiment: NMR titration; 1H-15N TROSY-HSQC (1D projections) on nanodiscs with PI(4,5)P2: labelled myrArf1 without and with a stoichiometric ratio of wt PH; ZA-labelled PZA on nanodiscs alone or with membrane-bound myrArf1 (25 °C); both purified
[2] = target: Cys159-MTSL tagged myrArf1 (human) (UniProt P84077); experiment: NMR intermolecular paramagnetic relaxation enhancement (PRE); Cys159-MTSL myrArf1 with a non-hydrolysable GTP analog on nanodiscs, alone or in complex with wt PH (100 μM), and 100 μM isotopically labeled isolated ZA domain; both purified
[3] = target: myristoylated human Arf1 (myrArf1), GTP-bound form at a membrane surface (human) (UniProt P84077); experiment: other fluorescence titration + other: inhibition of GAP activity; PH domain titrated; (i) rate of mant-GTP dissociation from myrArf1 on LUVs with 5 mol% PI(4,5)P2, followed by FRET from Arf tryptophan to mant-GTP, excess GTP 160 μM; (ii) IC50 of PH domain for GAP activity of 1 nM wt PZA on myrArf1·GTP below the Km; both served as proxies for the affinity; both purified
[4] = target: MTSL-tagged myrArf1 K73C (Cys159 mutated to Ala) (human) (UniProt P84077); experiment: NMR intermolecular paramagnetic relaxation enhancement (PRE); 60 μM MTSL-labelled myrArf1 variants on nanodiscs, 50 μM methyl-labelled perdeuterated ASAP1 PH, paramagnetic against ascorbate-reduced sample, 25 °C; both purified
[5] = target: MTSL-tagged myrArf1 K38C (Cys159 mutated to Ala) (human) (UniProt P84077); experiment: as above
[6] = target: myristoylated human Arf1 (myrArf1), GTP-bound form at a membrane surface (human) (UniProt P84077); experiment: NMR titration; 1H-13C methyl HMQC, 25 °C; myrArf1·GTPγS on nanodiscs (PC:PI(4,5)P2 95:5) with ASAP1 PH at about equimolar ratio (1:1.2); one partner methyl-labelled, the other 2H or 1H; 20 mM Tris-HCl pH 7.4, 150 mM NaCl, 1 mM MgCl2, 0.5 mM TCEP; both purified
[7] = target: myristoylated human Arf1 (myrArf1), GTP-bound form at a membrane surface (human) (UniProt P84077); experiment: 31P NMR; 1D 31P spectra of GTPγS bound to myrArf1 on nanodiscs, alone or with ASAP1 PH, 25 °C; both purified

Measured: binding

wt ASAP1 PH domain, [325–451]ASAP1 (from UniProt Q9QWY8 325-451) (domain or fragment)
binds: all assays above

ΔN9 ASAP1 PH domain, [334–451]ASAP1 (from UniProt Q9QWY8 334-451) (domain or fragment)
binds: [6]

ΔN14 ASAP1 PH domain, [339–451]ASAP1 (from UniProt Q9QWY8 339-451) (domain or fragment)
binds: [6]
